Test results published in US8202906B2, “Use of docosahexanoic acid as active substance for the treatment of lipodystrophy” (Proyecto Empresarial Brudy, S.L., priority 2002, dated 2012).
For at least one compound, name, drawing or mass did not settle the structure.

Columns and labels:
[1] = tested on: HIV-infected patients under HAART regimen and presenting lipodystrophy syndrome; assay: Example 1: 3 months' administration to HIV-infected patients under HAART with lipodystrophy syndrome; type: in vivo, human
Description: Four HIV-infected patients under HAART regimen and presenting lipodystrophy syndrome were administered 4 grams/day of a tuna oil with a DHA content of 70%. After three months' administration of DHA to said patients, the following discoveries were made, even taking account of the short period of administration: • 1. […] Mean reduction of 56% in the plasma triglycerides number. • 3. Mean reduction of 25% in the total plasma cholesterol number. • 4. Mean increase of 9% in the plasma HDL cholesterol number. • 5. Mean reduction of 18% in the plasma LDL cholesterol number.

[2] = tested on: patients treated with DHA (lipodystrophy); assay: Example 2: 300-day monitoring of the four patients treated with DHA; type: in vivo, human; settings: all patients, subjective and according to the skill's criterion
Excerpt: From the four patients treated with DHA at elevated dosages (1.5 g/day), all of them have been monitored for 300 days and, although notable fluctuations are observed, especially regarding to the triglicerids (see Table 2), after 300 days of monitoring, the reduction's mean in the number of triglycerids with respect to the basal level is 66% and for the cholesterol is 28.0%.
All patients have improved their fat redistribution, from the point of view subjective and according to the skill's criterion.

Compound: CC/C=C\C/C=C\C/C=C\C/C=C\C/C=C\C/C=C\CCC(=O)O [DHA, docosahexaenoic acid]
- facial fat loss ([1]; 4 grams/day): improvement
- fat loss in buttocks and extremities ([1]; 4 grams/day): improvement
- intra-abdominal fat ([1]; 4 grams/day): no increase
- reversal of body-fat distribution disorders ([1]; 4 grams/day tuna oil with 70% DHA, four patients): Partial reversal
- fat redistribution [2]: improved
